The source of these data is the supplement of paper PMC12819154, “High-throughput peptide-centric local stability assay extends protein–ligand identification to membrane proteins, tissues and bacteria” (Nature Structural & Molecular Biology, 2025).

By UniProt entry, the sequences of proteins in these tests, tags left out. Where a name states a change or a piece, a line headed by the entry shows the natural chain unless it says otherwise.
UniProt Q8N3Y1: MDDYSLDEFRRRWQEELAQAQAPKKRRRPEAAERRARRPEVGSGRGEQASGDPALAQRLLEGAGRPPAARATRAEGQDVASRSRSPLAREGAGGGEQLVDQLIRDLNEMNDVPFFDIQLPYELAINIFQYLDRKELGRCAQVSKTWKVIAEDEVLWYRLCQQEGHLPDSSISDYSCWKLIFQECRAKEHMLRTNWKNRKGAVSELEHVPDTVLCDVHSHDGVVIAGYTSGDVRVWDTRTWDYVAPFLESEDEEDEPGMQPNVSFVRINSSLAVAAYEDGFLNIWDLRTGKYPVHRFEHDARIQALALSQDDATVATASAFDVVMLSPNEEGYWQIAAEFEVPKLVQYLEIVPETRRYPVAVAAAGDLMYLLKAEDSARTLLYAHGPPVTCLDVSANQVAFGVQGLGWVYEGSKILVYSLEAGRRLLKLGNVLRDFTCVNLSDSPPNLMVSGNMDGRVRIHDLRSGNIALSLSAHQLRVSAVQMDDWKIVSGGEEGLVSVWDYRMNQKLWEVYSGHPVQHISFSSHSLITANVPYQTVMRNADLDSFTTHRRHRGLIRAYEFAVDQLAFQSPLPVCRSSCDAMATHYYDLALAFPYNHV
UniProt Q8NA72: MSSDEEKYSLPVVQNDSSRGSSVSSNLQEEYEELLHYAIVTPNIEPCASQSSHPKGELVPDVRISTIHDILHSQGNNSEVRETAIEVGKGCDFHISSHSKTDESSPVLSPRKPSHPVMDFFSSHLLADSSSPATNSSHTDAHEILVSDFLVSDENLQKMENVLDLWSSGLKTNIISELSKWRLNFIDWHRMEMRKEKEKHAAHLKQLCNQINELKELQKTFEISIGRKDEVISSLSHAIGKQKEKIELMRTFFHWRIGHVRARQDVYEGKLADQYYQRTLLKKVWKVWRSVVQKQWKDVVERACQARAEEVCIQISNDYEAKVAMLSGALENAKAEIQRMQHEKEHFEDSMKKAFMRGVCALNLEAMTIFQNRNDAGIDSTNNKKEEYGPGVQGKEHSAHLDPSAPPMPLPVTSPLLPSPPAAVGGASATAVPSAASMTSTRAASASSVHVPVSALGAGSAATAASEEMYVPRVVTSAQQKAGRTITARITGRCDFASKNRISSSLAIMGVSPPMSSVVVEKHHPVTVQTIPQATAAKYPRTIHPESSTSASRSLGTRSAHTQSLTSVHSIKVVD
UniProt Q8NDV7: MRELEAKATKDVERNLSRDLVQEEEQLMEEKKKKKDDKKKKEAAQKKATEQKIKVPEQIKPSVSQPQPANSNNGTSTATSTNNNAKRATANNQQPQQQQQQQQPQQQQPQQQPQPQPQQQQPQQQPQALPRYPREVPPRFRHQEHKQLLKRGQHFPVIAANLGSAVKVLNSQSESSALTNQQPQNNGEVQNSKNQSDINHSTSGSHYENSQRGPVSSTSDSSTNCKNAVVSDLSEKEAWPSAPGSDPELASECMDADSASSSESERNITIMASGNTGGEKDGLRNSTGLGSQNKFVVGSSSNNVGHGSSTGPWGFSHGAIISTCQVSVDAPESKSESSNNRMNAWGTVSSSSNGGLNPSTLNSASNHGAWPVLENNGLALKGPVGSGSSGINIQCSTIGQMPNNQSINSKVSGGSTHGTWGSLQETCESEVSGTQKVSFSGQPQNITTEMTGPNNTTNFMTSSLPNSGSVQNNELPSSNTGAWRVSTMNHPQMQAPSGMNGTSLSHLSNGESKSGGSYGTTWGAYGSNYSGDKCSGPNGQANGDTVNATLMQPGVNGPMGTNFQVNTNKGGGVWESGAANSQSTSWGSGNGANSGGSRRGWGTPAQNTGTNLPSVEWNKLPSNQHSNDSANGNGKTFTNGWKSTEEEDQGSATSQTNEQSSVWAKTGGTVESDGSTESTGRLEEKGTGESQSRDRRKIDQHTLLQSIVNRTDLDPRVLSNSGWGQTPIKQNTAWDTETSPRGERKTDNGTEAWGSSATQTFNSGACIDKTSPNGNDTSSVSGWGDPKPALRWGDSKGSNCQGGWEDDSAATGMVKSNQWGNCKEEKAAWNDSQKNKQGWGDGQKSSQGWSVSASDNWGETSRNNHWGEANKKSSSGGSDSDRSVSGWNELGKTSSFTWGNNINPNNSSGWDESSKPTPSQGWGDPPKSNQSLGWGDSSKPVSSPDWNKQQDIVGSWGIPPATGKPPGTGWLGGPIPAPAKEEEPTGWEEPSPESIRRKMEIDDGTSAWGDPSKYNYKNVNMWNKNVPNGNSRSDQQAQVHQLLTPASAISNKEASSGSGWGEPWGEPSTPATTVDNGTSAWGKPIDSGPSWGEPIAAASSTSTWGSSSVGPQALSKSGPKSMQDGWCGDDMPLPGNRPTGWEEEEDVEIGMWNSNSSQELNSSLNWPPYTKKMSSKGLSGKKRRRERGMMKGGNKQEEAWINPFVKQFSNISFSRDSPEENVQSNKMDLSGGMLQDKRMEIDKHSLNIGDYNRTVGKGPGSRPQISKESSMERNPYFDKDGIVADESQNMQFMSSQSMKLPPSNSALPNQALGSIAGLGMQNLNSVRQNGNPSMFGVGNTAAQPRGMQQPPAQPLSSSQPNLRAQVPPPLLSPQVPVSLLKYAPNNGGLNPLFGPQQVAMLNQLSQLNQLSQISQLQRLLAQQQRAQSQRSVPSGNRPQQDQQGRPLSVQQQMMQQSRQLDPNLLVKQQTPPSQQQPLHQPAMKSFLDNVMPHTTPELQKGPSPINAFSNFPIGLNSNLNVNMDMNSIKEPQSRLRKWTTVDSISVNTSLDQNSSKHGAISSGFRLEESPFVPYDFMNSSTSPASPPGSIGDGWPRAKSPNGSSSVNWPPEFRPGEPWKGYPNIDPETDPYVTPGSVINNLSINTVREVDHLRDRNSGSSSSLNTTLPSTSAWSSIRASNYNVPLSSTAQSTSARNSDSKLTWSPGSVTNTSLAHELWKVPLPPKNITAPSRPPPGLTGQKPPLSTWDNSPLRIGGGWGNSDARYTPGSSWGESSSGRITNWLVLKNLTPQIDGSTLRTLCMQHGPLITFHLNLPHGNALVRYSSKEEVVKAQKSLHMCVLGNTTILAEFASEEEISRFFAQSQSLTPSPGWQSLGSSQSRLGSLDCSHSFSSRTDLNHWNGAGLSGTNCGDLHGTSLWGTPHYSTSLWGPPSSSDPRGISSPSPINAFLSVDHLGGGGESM
UniProt Q8N8K9: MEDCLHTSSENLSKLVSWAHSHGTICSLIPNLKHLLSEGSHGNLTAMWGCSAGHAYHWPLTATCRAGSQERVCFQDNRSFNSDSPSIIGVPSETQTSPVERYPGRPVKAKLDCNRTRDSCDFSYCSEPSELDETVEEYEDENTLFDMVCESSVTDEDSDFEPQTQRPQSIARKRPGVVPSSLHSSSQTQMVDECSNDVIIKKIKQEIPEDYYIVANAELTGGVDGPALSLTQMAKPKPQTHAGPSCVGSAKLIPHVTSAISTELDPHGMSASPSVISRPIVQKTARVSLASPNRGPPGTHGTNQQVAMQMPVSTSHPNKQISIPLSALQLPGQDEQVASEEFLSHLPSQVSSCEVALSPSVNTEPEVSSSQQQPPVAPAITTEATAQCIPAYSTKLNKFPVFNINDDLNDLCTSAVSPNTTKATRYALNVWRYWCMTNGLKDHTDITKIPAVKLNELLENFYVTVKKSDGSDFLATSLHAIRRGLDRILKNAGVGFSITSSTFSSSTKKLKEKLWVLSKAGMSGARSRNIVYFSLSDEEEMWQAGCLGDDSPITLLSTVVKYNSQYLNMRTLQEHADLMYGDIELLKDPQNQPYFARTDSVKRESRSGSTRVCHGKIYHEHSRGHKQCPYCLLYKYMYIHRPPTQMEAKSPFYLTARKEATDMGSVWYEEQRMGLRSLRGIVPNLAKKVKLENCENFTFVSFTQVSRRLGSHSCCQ
UniProt Q8N184: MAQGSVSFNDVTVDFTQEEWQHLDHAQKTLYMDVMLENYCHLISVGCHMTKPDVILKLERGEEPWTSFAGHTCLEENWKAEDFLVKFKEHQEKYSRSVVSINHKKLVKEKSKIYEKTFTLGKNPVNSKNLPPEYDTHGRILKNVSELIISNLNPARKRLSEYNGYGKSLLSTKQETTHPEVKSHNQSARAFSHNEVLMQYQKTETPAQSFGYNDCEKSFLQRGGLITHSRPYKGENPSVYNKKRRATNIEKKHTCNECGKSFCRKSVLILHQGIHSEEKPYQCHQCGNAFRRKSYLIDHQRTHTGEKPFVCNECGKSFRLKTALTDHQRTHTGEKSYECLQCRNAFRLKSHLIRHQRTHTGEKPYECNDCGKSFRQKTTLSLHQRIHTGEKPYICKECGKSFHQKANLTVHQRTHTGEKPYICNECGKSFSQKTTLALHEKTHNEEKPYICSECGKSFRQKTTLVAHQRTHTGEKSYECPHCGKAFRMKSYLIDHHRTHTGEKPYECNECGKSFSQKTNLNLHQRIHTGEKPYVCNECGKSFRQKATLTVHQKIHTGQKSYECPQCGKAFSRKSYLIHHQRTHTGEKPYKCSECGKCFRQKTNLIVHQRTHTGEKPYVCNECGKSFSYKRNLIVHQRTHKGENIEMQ
UniProt Q8ND82: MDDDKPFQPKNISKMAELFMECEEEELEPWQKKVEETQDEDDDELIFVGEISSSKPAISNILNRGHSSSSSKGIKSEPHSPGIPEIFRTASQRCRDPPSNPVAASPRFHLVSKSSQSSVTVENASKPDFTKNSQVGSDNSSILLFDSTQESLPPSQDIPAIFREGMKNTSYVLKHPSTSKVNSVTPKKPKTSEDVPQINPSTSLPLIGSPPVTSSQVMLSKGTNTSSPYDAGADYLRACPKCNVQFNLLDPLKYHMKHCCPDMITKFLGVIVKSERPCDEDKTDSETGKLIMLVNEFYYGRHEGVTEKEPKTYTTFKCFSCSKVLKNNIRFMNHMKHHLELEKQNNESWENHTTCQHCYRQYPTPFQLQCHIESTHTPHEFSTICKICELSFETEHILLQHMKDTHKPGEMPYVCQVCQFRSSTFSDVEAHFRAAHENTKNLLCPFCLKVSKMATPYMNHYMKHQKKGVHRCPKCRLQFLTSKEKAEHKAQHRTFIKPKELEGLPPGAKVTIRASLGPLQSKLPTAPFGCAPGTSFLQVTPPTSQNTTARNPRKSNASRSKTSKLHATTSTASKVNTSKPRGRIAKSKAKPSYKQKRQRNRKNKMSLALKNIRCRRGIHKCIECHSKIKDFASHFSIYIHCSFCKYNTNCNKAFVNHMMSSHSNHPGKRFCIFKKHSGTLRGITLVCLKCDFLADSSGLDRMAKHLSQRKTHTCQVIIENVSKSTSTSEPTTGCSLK
UniProt Q8NFH4: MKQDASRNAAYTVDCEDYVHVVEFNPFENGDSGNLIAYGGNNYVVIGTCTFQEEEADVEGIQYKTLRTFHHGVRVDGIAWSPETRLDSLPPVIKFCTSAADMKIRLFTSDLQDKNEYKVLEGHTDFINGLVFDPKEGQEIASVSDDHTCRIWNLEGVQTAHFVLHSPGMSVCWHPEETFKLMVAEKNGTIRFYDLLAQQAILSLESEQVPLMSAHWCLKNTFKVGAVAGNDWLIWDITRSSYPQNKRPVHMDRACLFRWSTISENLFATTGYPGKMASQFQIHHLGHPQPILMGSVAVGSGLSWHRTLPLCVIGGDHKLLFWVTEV
UniProt Q8N4U5: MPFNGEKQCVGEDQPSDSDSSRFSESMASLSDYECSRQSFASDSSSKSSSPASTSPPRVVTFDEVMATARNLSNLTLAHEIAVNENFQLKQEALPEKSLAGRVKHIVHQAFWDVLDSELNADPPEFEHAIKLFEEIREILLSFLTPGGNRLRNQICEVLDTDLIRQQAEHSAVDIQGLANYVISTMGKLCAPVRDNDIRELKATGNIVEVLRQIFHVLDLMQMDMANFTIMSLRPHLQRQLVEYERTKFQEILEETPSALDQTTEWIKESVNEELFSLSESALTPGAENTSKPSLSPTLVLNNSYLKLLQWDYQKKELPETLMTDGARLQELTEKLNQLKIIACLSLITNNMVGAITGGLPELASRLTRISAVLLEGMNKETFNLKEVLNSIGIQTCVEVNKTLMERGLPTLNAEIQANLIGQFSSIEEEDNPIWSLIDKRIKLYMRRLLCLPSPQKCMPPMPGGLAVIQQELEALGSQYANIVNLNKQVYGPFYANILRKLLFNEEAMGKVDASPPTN
UniProt Q8NCW5: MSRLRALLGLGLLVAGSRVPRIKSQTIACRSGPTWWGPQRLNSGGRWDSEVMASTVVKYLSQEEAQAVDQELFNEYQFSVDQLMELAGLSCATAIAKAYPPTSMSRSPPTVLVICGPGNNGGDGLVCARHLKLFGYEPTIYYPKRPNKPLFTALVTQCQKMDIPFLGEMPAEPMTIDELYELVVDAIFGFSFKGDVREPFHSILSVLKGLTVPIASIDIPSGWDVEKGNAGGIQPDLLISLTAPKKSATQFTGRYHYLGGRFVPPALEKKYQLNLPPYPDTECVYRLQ

Some of the results follow. Small differences around the control level are noise.

Compound in this assay: Cc1nc(Nc2ncc(C(=O)Nc3c(C)cccc3Cl)s2)cc(N2CCN(CCO)CC2)n1 [dasatinib]
Nature of the assay: log2 fold change of tryptic peptide abundance, ligand vs vehicle (limited proteolysis) (log2 ratio); higher = more trypsin-susceptible (destabilized). Particulars: ligand concentration: 5 uM; sample: K562 cleared lysate.
As to “ARFGAP1 (peptide sequence: KSPSSDSWTCADTSTERR, peptide start residue: 342) (UniProt Q8N6T3)”, the log2 fold change was 0.117.
In the case of “FBXW8 (peptide sequence: SGNIALSLSAHQLR, peptide start residue: 464) (UniProt Q8N3Y1)”, the log2 fold change is -0.22.
With “CCDC82 (peptide sequence: TMQIDNFMSHDK, peptide start residue: 448) (UniProt Q8N4S0)”, the log2 fold change is 0.329.
In the case of “UniProt Q8N954 (peptide sequence: SLKEEEQERR, peptide start residue: 76)”, the log2 fold change stood at 0.117.
Regarding “STK40 (peptide sequence: GDQGIESQEER, peptide start residue: 74) (UniProt Q8N2I9)”, the log2 fold change is -0.41.
Consider “POC5 (peptide sequence: NDAGIDSTNNKK, peptide start residue: 374) (UniProt Q8NA72)”, for which the log2 fold change turned out to be 0.909.
In the case of “UniProt Q8ND04 (peptide sequence: EFLWQHVELVLSKK, peptide start residue: 412)” it was -0.687; in that of “ASCC1 (peptide sequence: KIEMETK, peptide start residue: 111) (UniProt Q8N9N2)”, 0.243; in that of “TNRC6A (peptide sequence: LGSLDCSHSFSSR, peptide start residue: 1882) (UniProt Q8NDV7)”, 0.542.
Consider “UniProt Q8N8K9 (peptide sequence: AKLDCNR, peptide start residue: 109)”, for which the log2 fold change is -0.51.
As to “UniProt Q8N184 (peptide sequence: SYECPHCGK, peptide start residue: 476)”, the log2 fold change was -0.03.
In the case of “ZNF280C (peptide sequence: SSQSSVTVENASKPDFTK, peptide start residue: 114) (UniProt Q8ND82)” it was 0.125; in that of “AGGF1 (peptide sequence: DESFVGPTLSKEEK, peptide start residue: 541) (UniProt Q8N302)”, -0.391; in that of “UniProt Q8NF99 (peptide sequence: SQGLPQEPSFR, peptide start residue: 203)”, 0.0205.
In the case of “ZGPAT (peptide sequence: LFQTEEKIER, peptide start residue: 459) (UniProt Q8N5A5)” it was -0.503; in that of “UniProt Q8NB78 (peptide sequence: EIQLTPQIAK, peptide start residue: 156)”, -0.306; in that of “ZFP62 (peptide sequence: SFSYNSLLLQHR, peptide start residue: 429) (UniProt Q8NB50)”, 0.319.
Consider “UniProt Q8NDP4 (peptide sequence: SFSYSATHR, peptide start residue: 236)”, for which the log2 fold change turned out to be 0.0259.
In the case of “NUP37 (peptide sequence: TLPLCVIGGDHK, peptide start residue: 307) (UniProt Q8NFH4)”, the log2 fold change was -0.302.
As to “LTBP4 (peptide sequence: AGPDLASCLDVDECRER, peptide start residue: 952) (UniProt Q8N2S1)”, the log2 fold change worked out at 0.202.
For “UniProt Q8N1G2 (peptide sequence: LWGIPDQAR, peptide start residue: 538)”, the log2 fold change is 0.14.
In the case of “TCP11L2 (peptide sequence: SSSPASTSPPR, peptide start residue: 48) (UniProt Q8N4U5)”, the log2 fold change is -0.144.
On to “PTGR2 (peptide sequence: VVLNSRPGK, peptide start residue: 6) (UniProt Q8N8N7)”, for which the log2 fold change is -0.594.
With “UniProt Q8NE65 (peptide sequence: GASGYPGAER, peptide start residue: 13)”, the log2 fold change is -0.133.
For “UniProt Q8NC60 (peptide sequence: TKKPPSLMYNVR, peptide start residue: 679)”, the log2 fold change amounted to 0.225.
In the case of “UniProt Q8NCW5 (peptide sequence: YHYLGGR, peptide start residue: 255)” it was -0.231; in that of “SHCBP1 (peptide sequence: LRLHYDILEDR, peptide start residue: 228) (UniProt Q8NEM2)”, -0.521; in that of “UBR7 (peptide sequence: NIDGIGDQEVIKPENGEHQDSTLK, peptide start residue: 214) (UniProt Q8N806)”, -0.557.
